These are yes or no findings as the source states them, for the method shown. In cells and extracts the contact can be indirect. Here binding means that the protein was enriched with, or labelled near, the bait; the list need not be complete.
B1: EIF1AD (protein, UniProt Q8N9N8 1-165)
chain: MSQATKRKHVVKEVLGEHIVPSDQQQIVRVLRTPGNNLHEVETAQGQRFLVSMPSKYRKNIWIKRGDFLIVDPIEEGEKVKAEISFVLCKDHVRSLQKEGFWPEAFSEVAEKHNNRNRQTQPELPAEPQLSGEESSSEDDSDLFVNTNRRQYHESEEESEEEEAA
B2: NOB1 (enzyme, UniProt Q9ULX3 1-412)
chain: MAPVEHVVADAGAFLRHAALQDIGKNIYTIREVVTEIRDKATRRRLAVLPYELRFKEPLPEYVRLVTEFSKKTGDYPSLSATDIQVLALTYQLEAEFVGVSHLKQEPQKVKVSSSIQHPETPLHISGFHLPYKPKPPQETEKGHSACEPENLEFSSFMFWRNPLPNIDHELQELLIDRGEDVPSEEEEEEENGFEDRKDDSDDDGGGWITPSNIKQIQQELEQCDVPEDVRVGCLTTDFAMQNVLLQMGLHVLAVNGMLIREARSYILRCHGCFKTTSDMSRVFCSHCGNKTLKKVSVTVSDDGTLHMHFSRNPKVLNPRGLRYSLPTPKGGKYAINPHLTEDQRFPQLRLSQKARQKTNVFAPDYIAGVSPFVENDISSRSATLQVRDSTLGAGRRRLNPNASRKKFVKKR
B3: TSR1 (protein, UniProt Q2NL82 1-804)
chain: MAAHRPGPLKQQNKAHKGGRHRGRGSAQRDGKGRLALKTLSKKVRKELSRVDQRHRASQLRKQKKEAVLAEKRQLGGKDGPPHQVLVVPLHSRISLPEAMQLLQDRDTGTVHLNELGNTQNFMLLCPRLKHRWFFTSARPGDLHVVLDMAKVADTILFLLDPLEGWDSTGDYCLSCLFAQGLPTYTLAVQGISGLPLKKQIDTRKKLSKAVEKRFPHDKLLLLDTQQEAGMLLRQLANQKQQHLAFRDRRAYLFAHAVDFVPSEENNLVGTLKISGYVRGQTLNVNRLLHIVGYGDFQMKQIDAPGDPFPLNPRGIKPQKDPDMAMEICATDAVDDMEEGLKVLMKADPGRQESLQAEVIPDPMEGEQTWPTEEELSEAKDFLKESSKVVKKVPKGTSSYQAEWILDGGSQSGGEGDEYEYDDMEHEDFMEEESQDESSEEEEEYETMTIGESVHDDLYDKKVDEEAEAKMLEKYKQERLEEMFPDEVDTPRDVAARIRFQKYRGLKSFRTSPWDPKENLPQDYARIFQFQNFTNTRKSIFKEVEEKEVEGAEVGWYVTLHVSEVPVSVVECFRQGTPLIAFSLLPHEQKMSVLNMVVRRDPGNTEPVKAKEELIFHCGFRRFRASPLFSQHTAADKHKLQRFLTADMALVATVYAPITFPPASVLLFKQKSNGMHSLIATGHLMSVDPDRMVIKRVVLSGHPFKIFTKMAVVRYMFFNREDVLWFKPVELRTKWGRRGHIKEPLGTHGHMKCSFDGKLKSQDTVLMNLYKRVFPKWTYDPYVPEPVPWLKSEISSTVPQGGME

The chains behind the UniProt entries cited, without tags or fusion partners.
UniProt Q9NRX1: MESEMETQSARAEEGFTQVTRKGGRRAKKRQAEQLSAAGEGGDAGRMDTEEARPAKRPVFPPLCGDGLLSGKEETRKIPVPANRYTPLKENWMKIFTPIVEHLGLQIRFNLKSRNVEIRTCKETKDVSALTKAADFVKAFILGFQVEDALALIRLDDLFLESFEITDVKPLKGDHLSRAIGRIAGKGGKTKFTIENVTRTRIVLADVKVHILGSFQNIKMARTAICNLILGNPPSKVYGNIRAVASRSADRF
UniProt Q9Y5T5: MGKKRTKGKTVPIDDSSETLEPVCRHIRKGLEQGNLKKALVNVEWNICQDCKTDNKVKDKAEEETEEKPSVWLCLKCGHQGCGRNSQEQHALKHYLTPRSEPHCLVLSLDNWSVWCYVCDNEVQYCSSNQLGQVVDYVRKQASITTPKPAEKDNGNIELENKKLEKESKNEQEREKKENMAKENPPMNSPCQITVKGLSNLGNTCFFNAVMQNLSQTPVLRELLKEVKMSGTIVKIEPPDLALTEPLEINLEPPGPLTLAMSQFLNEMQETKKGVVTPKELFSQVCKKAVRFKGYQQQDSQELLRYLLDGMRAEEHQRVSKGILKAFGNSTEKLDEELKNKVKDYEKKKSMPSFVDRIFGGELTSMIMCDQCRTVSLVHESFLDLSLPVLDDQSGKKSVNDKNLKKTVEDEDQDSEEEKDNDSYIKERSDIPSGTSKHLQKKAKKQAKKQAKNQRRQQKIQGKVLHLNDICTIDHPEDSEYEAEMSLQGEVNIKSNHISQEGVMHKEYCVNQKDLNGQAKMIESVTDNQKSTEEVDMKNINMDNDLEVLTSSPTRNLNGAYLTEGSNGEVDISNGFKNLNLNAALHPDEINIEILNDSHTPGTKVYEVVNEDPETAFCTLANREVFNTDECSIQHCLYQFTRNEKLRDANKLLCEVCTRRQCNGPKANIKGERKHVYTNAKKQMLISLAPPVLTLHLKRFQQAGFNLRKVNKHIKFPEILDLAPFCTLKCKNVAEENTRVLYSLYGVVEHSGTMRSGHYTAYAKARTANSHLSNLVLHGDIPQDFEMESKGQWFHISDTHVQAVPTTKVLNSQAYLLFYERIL

What follows are molecules tested against T1, RIO1(kd)-StHA, catalytically inactive RIO1 mutated on aspartic acid 324 (D324A) (human) (UniProt Q9BRS2) (assay: affinity purification with mass spectrometry; StHA-tagged bait captured from HEK293 lysate on anti-HA affinity gel, washed with TAP buffer (20 mM Tris-HCl pH 7.6, 100 mM KCl, 2 mM MgCl2, 1 mM DTT), label-free nano-LC-MS/MS; for the comparative analysis cells treated with scramble or RPS26 siRNA).
T1 sequence: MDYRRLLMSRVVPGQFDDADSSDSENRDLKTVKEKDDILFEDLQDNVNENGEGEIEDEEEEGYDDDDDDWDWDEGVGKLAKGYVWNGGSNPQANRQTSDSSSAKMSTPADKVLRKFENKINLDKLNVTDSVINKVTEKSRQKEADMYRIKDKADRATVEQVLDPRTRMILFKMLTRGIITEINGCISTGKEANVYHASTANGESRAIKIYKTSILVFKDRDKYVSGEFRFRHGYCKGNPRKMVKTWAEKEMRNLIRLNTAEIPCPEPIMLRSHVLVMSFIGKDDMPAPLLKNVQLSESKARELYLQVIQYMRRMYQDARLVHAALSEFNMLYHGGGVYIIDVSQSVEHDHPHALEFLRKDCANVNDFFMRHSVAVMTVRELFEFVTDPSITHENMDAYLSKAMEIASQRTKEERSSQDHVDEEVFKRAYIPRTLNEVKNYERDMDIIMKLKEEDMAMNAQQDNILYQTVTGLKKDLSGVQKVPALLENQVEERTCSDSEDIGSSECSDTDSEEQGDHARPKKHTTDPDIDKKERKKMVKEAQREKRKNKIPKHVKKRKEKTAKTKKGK

binding, binds:
B1, B2, B3

Biological target: T1, RIO1(kd)-StHA, catalytically inactive RIO1 mutated on aspartic acid 324 (D324A) (human)
Test: as above
Remark: another data set of the same source

binding, binds:
DIM2 (from UniProt Q9NRX1 1-252), USP16 (from UniProt Q9Y5T5 1-823) (enzyme), eIF4A (human (endogenous in HEK293))

— paper PMC8112863
